Reference: patent US20070282017A1 (Harvard, published 2007)
No constants are given. Whether binding was seen depends on the method and setting. In cells and extracts the contact can be indirect. Some entries that bind do so weakly or less than the wild type. For some assays here: Sequences can lack the tags named with a protein.

Sequences of proteins named here, by UniProt entry; tags and fusion partners are left off. A change or cut given only in a name is not applied to a line headed by its entry.
UniProt Q13526: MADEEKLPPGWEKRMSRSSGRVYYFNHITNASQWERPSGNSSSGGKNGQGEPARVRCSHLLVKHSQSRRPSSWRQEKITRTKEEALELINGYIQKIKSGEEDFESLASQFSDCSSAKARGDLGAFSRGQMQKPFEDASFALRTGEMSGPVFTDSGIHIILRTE

Experiments:
[1] = target: T1, Endogenous JIP3 in cerebellar granule neurons (rat) (UniProt E9PSK7); assay: GST pulldown from granule neuron lysates, JIP3 immunoblot
T1 sequence (phosphorylated (sites not given), looked up): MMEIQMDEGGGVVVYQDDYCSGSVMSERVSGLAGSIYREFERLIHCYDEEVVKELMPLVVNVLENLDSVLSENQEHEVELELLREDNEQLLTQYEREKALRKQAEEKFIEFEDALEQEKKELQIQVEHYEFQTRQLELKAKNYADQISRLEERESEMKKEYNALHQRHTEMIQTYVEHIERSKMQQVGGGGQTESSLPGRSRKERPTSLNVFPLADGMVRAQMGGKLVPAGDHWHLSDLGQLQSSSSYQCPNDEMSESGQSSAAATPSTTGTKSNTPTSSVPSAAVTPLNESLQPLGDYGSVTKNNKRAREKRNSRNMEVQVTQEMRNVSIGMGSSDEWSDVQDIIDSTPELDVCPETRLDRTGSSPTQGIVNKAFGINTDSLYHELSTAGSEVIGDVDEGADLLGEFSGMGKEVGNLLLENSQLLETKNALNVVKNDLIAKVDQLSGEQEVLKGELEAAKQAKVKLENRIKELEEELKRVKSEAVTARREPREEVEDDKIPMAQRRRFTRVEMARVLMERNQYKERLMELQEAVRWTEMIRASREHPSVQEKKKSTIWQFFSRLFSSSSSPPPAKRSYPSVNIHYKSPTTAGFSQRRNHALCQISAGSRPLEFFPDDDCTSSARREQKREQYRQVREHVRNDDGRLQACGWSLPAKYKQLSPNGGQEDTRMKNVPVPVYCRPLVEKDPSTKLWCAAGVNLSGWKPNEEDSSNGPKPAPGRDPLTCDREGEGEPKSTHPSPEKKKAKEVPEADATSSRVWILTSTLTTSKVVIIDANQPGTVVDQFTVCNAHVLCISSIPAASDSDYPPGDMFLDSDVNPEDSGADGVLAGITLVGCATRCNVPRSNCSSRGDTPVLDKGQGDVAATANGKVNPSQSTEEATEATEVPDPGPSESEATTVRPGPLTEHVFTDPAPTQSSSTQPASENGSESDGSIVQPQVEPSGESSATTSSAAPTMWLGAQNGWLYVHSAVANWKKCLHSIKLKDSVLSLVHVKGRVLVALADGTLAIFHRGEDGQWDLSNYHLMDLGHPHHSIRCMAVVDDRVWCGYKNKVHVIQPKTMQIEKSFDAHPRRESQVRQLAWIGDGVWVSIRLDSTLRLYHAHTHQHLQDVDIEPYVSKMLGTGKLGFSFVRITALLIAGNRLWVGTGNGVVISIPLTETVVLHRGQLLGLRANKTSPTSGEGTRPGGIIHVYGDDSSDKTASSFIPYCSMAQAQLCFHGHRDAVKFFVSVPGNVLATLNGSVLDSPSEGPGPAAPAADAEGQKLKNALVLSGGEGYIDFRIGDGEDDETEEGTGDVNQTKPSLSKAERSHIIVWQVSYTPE

[2] = target: T2, FLAG-tagged JIP3 fragment 1-442 (UniProt Q9ESN9); assay: GST-Pin1 pulldown from 293T lysates, anti-FLAG immunoblot
T2 sequence (looked up): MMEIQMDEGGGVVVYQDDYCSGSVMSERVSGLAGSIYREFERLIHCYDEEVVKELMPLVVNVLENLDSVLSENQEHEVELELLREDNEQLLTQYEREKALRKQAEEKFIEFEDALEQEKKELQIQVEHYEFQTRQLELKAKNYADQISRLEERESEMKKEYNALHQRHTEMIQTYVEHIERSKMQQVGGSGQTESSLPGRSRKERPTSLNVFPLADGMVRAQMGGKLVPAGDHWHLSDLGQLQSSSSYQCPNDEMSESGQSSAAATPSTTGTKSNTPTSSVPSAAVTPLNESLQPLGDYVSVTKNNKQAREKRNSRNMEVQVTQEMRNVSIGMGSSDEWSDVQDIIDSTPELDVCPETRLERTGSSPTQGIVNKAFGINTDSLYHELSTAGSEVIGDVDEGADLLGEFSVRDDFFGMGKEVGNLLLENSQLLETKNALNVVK

Substance: GST-Pin1 WW (recombinant GST fusion protein containing the WW domain of Pin1) (from UniProt Q13526 1-54)
- binding [1]: binds

Substance: Recombinant GST-Pin1 (from UniProt Q13526 1-163) (enzyme)
- binding [2]: binds
